The target of experiment [1] is GST-Tanc2-C (aa 1359-1990) (human) (UniProt Q9HCD6). The experiment can be described thus: pull-down; GST-Tanc2 proteins (full-length, N, C) immobilised on glutathione agarose beads, incubated with mTOR recombinant protein (0.5 µg) or Deptor protein in RIPA buffer for 2 h at 4 °C; washed three times; Coomassie staining or immunoblot; both purified. For orientation: A western blot detects proteins with antibodies after separation by electrophoresis.

Amino acid sequences for entries named in this document (tags omitted). Residues count along the entry.
GST-Tanc2-N (aa 1-1358) (Q9HCD6, residues 1-1358): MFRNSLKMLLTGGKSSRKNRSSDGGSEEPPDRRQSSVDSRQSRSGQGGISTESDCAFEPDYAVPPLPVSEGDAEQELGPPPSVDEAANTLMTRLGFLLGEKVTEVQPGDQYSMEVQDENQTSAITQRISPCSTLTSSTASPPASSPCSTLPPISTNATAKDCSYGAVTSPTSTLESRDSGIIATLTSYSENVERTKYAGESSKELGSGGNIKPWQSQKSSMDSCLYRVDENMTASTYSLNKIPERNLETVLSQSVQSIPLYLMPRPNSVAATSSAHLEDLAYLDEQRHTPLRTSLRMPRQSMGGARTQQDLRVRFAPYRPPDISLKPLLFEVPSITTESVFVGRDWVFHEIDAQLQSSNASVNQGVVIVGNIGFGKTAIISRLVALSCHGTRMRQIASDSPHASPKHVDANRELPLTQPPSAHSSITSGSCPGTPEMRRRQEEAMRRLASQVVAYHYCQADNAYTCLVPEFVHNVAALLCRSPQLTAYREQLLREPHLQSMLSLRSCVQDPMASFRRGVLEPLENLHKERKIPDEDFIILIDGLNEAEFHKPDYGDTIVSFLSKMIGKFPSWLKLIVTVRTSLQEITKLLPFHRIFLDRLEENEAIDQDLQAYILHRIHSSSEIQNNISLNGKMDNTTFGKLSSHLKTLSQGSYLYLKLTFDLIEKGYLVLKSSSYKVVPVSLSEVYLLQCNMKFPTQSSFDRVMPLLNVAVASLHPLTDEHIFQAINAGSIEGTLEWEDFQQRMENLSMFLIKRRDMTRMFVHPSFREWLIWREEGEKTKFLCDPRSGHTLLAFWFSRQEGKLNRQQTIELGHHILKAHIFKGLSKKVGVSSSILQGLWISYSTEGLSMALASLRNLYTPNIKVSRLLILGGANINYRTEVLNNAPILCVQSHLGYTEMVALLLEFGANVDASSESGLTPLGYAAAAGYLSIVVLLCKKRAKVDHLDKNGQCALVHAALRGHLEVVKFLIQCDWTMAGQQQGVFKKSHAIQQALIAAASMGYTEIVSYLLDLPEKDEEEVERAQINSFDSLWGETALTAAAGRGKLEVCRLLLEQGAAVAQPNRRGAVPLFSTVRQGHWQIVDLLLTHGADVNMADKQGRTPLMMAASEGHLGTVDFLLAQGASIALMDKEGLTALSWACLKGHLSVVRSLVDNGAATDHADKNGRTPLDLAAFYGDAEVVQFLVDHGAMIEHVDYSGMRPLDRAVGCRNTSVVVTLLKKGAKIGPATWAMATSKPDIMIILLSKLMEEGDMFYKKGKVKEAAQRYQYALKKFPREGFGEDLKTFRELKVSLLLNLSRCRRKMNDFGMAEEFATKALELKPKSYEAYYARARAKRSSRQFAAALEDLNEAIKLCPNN
GST-Tanc2-C (aa 1359-1990) (Q9HCD6, residues 1359-1990): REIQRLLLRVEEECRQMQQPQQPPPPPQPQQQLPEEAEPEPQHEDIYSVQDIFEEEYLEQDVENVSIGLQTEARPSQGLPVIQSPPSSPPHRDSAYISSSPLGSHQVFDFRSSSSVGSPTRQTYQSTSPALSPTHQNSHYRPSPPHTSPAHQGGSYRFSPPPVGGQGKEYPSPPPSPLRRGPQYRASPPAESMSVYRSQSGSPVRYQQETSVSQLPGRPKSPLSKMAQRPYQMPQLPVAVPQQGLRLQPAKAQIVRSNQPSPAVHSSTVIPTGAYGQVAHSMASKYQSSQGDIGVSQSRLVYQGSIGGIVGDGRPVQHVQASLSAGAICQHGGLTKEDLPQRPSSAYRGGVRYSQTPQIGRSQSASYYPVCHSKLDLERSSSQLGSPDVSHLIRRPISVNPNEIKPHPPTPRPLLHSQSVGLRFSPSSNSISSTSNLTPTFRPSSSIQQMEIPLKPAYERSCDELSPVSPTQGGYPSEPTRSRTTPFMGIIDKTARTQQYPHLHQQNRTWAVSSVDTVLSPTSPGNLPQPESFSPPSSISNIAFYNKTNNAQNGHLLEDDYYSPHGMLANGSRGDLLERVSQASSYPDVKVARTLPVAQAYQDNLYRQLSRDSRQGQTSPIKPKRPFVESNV
UniProt Q8TB45: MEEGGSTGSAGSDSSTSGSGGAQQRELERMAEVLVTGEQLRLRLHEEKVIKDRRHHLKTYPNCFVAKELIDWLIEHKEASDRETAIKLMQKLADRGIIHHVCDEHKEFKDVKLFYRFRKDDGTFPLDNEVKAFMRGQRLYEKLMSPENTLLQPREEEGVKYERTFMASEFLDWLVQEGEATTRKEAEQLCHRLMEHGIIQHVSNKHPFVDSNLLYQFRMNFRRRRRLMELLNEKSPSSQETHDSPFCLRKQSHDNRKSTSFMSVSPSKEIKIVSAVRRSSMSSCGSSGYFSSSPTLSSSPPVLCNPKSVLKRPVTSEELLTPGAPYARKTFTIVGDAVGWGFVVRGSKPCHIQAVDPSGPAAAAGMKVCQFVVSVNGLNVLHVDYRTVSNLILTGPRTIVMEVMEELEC

The target in experiment [2] is GST-Tanc2-N (aa 1-1358) (human) (UniProt Q9HCD6). The experiment is described as above.

Results are given in words; binding and its absence hold for the method and conditions named.

“purified Deptor protein (from UniProt Q8TB45 1-409)”: the binding entry in experiment [1] and in experiment [2] was “no binding” each time.

The values are drawn from publication PMC8113471.
